# Source: PubChem BioAssay AID445 (National Center for Advancing Translational Sciences (NCATS), 2006)
# This is one part of the list. The main result of the screen is listed elsewhere. These columns were measured beside it and carry no call. Most of these compounds were active or inconclusive in the main read-out, so they are no random draw. Words in brackets tell the shape of the fitted curve; partial curves, single points and poor fits give uncertain potencies.
# Assay: IkB Signaling
# Conditions: ABC-DLBCL IkBa-CBG/CBR dual luciferase ratio (green luciferase fused to IkBa over red control in OCI-Ly3 lymphoma cells), 4 h
# How it was run: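 In this assay, an IκBα–CBG68 fusion accumulates when IKK-driven degradation is blocked; native CBR normalizes for cell number. OCI-Ly3 cells were treated 4 h with compound and doxycycline, then green and red light read after Chroma-Glo addition.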
# [1] = measured here: control luc red channel unless noted
smiles,measurement,setting,value
COc1cc(-c2cc(OC)c3c(C)oc(C)c3c(=O)c2)ccc1OC(=O)c1ccccc1F,AC50,[1],"1 µM [falling, full curve, poor fit]"
COc1ccccc1C(=O)NC1=NC(c2ccc(Br)cc2)CC(=O)N1 (configuration not stated),AC50,[1],"31.6 µM [falling, partial curve]"
OCCCc1nc2n(n1)C(c1cccc(Cl)c1)C=C(c1ccccc1)N2 (configuration not stated),AC50,[1],"10 µM [falling, partial curve]"
CCCc1cc(C(=O)Nc2c(C)nn(Cc3ccc(Cl)c(Cl)c3)c2C)no1,AC50,[1],"12.6 µM [falling, partial curve]"
Nc1n[nH]c(-c2ccccc2)c1-c1ccccc1,AC50,[1],"6.31 µM [falling, partial curve]"
Cc1nn(-c2ccccc2)c(OC(=O)C(C)(C)C)c1Sc1ccccc1,AC50,[1],"2.51 µM [falling, full curve, poor fit]"
O=c1oc2ccccc2cc1-c1cn2cc(Cc3ccccc3F)sc2n1,AC50,[1],"0.316 µM [rising, full curve]"
Cc1ccc(Cn2c(SCc3ccc(C(=O)NC4CCCC4)cc3)nc3ccncc32)cc1,AC50,[1],"25.1 µM [falling, single point]"
Cc1nnc(NC(=O)C(=O)c2cc(C)n(-c3ccc(C)c(C)c3)c2C)s1,AC50,[1],"10 µM [falling, partial curve]"
Cc1cc(C(=O)CSc2nnc(-c3ccccc3F)o2)c(C)n1Cc1cccs1,AC50,[1],"3.98 µM [falling, full curve, poor fit]"
Cc1ccc(C(=O)Nc2ccc3oc(-c4ccncc4)nc3c2)c(Cl)c1,AC50,[1],"3.16 µM [falling, full curve]"
Cc1nc2ccc(S(=O)(=O)N(C)CC(=O)N3CCc4ccccc43)cc2s1,AC50,[1],"25.1 µM [falling, partial curve]"
Cn1c(=O)oc2cc(S(=O)(=O)N3CCN(C(=O)c4ccco4)CC3)ccc21,AC50,[1],"5.01 µM [falling, partial curve]"
CCc1ccc(-n2c(=O)c3cccnc3n2CC(=O)Nc2ccccc2C(F)(F)F)cc1,AC50,[1],"0.0251 µM [rising, full curve, poor fit]"
N#Cc1c(NC(=O)CS(=O)(=O)c2ccc(Cl)cc2)sc2c1CCCCC2,AC50,[1],"3.98 µM [falling, partial curve]"
COc1ccc(-c2ccc(CCC(=O)O)n2CC(=O)Nc2cccc(C(F)(F)F)c2)cc1,AC50,[1],"20 µM [falling, single point]"
CCOc1ccc(S(=O)(=O)NCCc2sc3nc(-c4ccc(C)cc4)nn3c2C)cc1,AC50,[1],"3.16 µM [rising, single point] [measured here: IkB-luc green channel]"
Cc1cc(C)cc(-n2ccn(Cc3ccc(F)cc3)c(=O)c2=O)c1,AC50,[1],"7.94 µM [falling, partial curve]"
CCn1c(SCC(=O)Nc2cccc(OC)c2)nnc1-c1ccc(Cl)cc1,AC50,[1],"10 µM [falling, partial curve]"
Cc1cccc(C)c1Nc1c(-c2ccc(O)cc2)nc2sccn12,AC50,[1],"15.8 µM [falling, partial curve]"
O=c1c2sc3ccccc3c2n(Cc2cccc(C(F)(F)F)c2)c(=O)n1Cc1ccc(F)cc1,AC50,[1],"10 µM [rising, partial curve, poor fit]"
COc1ccc(NC(=O)CC2C(=O)N(c3cccc(OC)c3)C(=O)N2Cc2ccc3c(c2)OCO3)cc1 (configuration not stated),AC50,[1],"25.1 µM [falling, single point]"
CCOc1ccc(N2C(=O)c3cccnc3C2Nc2ccc(F)cc2)cc1 (configuration not stated),AC50,[1],"2.51 µM [falling, full curve]"
Cc1ccc(-c2cn(-c3ccc(Cl)cc3)c(S(=O)(=O)CC(=O)Nc3ccccc3)n2)cc1,AC50,[1],"6.31 µM [falling, full curve]"
Cc1nnc2c3ccccc3nc(Nc3cccc(O)c3)n12,AC50,[1],"15.8 µM [falling, partial curve, poor fit]"
CCCCOC(=O)c1ccc(Nc2nnc(-n3nc(C)cc3C)c3ccccc23)cc1,AC50,[1],"5.01 µM [falling, partial curve]"
O=C(NC1CC(=O)N(c2ccc(Cl)cc2)C1)c1ccc(S(=O)(=O)N2CCOCC2)cc1 (configuration not stated),AC50,measured here: IkB-luc green channel,"3.98 µM [rising, single point]"
same,AC50,measured here: control luc red channel,"6.31 µM [rising, partial curve]"
O=C(Nc1ccc2c(c1)OCO2)C1CCCN(S(=O)(=O)c2cccs2)C1 (configuration not stated),AC50,[1],"20 µM [falling, partial curve]"
COc1ccc(CCNc2oc(-c3ccccc3OC)nc2C#N)cc1,AC50,[1],"12.6 µM [falling, partial curve]"
Cc1ccc(Cl)cc1NC(=O)C1CCN(c2nc3ccccc3n3cccc23)CC1,AC50,[1],"20 µM [falling, single point]"
COc1cccc(-c2cc(C(=O)N3CCN(Cc4ccccc4)CC3)no2)c1,AC50,[1],"15.8 µM [falling, partial curve]"

# An excerpt of these results, with bars between the fields:
smiles | measurement | setting | value
Cc1cc(C(=O)CSc2nnc(-c3ccccc3F)o2)c(C)n1Cc1cccs1 | AC50 | [1] | 3.98 µM [falling, full curve, poor fit]
Cc1ccc(Cl)cc1NC(=O)C1CCN(c2nc3ccccc3n3cccc23)CC1 | AC50 | [1] | 20 µM [falling, single point]
